# Source: publication PMC6613765 (Journal of Virology, 2019)
# Like-named read-outs stand apart in the source and are kept apart here.
# Columns and labels:
# [1] = in vitro; settings: mouse
# [2] = in vitro
smiles,measurement,setting,value
Cc1cc(/C=C/c2ccc3cc(N(C)C)ccc3[n+]2C)c(C)n1-c1ccccc1 [Pyrvinium pamoate],CC50,[1],20 µM
same,CC50,[2],> 19 µM
